Laboratory results published in PubChem BioAssay AID624297 (National Center for Advancing Translational Sciences (NCATS), 2012).
Screen size: about 340,000 compounds; about 6,200 (1.8%) were called active. The shares of active, inactive and inconclusive entries below differ from those in the screen. Calls follow the shape of the dose curve; as a rule, active = well fitted activation curve with a large enough effect; inconclusive = small, poorly fitted or top-dose-only effect; inactive = no such curve, though single readings can be large or run the other way. Potencies beside an inconclusive call are fits to weak or partial responses and may not hold up.

Experiment: A quantitative high throughput screen for small molecules that induce DNA re-replication in SW480 colon adenocarcinoma cells. Also: nearly all actives have a fitted effect of over 55% in size. As to re-replication activation: % of control where 0% means no effect.
Details: Hoechst DNA content imaging, 48 h; re-replication activation: at 46.1 µM (top of the series) unless noted
How it was run: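 250 cells/well; 23 nL cpd via pin tool; 48 hr, 37 C, 5% CO2; Hoechst 40 min; imager read of total nuclear intensity, ex 405/em 500-530 nm.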
Potency is read from the fitted curve at half-maximal effect.

| Compound | Potency | re-replication activation |
| --- | --- | --- |
| c1ccc(-c2cc(NCCN3CCCCC3)c3ccccc3n2)cc1 | inconclusive: 29.1 µM [activator, single point] |  |
| O=C(Nc1ccncc1)c1cccc(S(=O)(=O)N2CCc3ccccc32)c1 | inconclusive: 0.731 µM [activator, full curve, poor fit] |  |
| Clc1ccc(-n2cc(-c3ccc(Br)cc3)[n+]3c2CCCCC3)cc1 | inconclusive: 6.51 µM [activator, single point] |  |
| COc1ccc(/C=c2\s/c(=C/C(=O)c3ccc(C)cc3)[nH]c2=O)c(OC)c1 | inconclusive: 29.1 µM [activator, single point] |  |
| COc1ccc(S(=O)(=O)N2CCC(C(=O)N[C@@H](C)C(=O)NCc3cccc(OC)c3)CC2)cc1 | inconclusive: 16.4 µM [activator, single point] |  |
| COc1ccc(N2CCc3c(C)nc4c(OC)cc(OC)cc4c32)c(OC)c1 | inconclusive: 20.6 µM [activator, single point] |  |
| Cc1ccc(-n2c(-c3nn(C)cc3Cl)n[nH]c2=S)cc1 |  | inactive: -0.651% |
| CCOc1cc(C(=S)N2CCOCC2)ccc1OS(=O)(=O)c1ccccc1[N+](=O)[O-] | inconclusive: 20.6 µM [activator, single point] |  |
| CCN(c1ccc(NC(=O)CCc2nc3sc4c(c3c(=O)[nH]2)CCCC4)cc1)C(C)C | inconclusive: 20.6 µM [activator, single point] |  |
| COc1ccccc1-n1cnc2cc(NCc3ccccc3O)ccc21 | inconclusive: 23.1 µM [activator, single point] |  |
| O=C(CC1C(=O)NCCN1C(=O)Nc1ccccc1)Nc1cccc(C(F)(F)F)c1 (configuration not stated) | inconclusive: 6.51 µM [activator, single point] |  |
| Oc1ccc(Nc2nc(-c3ccccc3)nc3ccccc23)cc1 |  | inactive: -2.68% |
| O=C(Nc1ccc(CN2CCOCC2)cc1)c1ccc(-c2ccc(Cl)cc2Cl)o1 | inconclusive: 29.1 µM [activator, single point] |  |
| Clc1ccc(/C=N/Nc2ncnc3nc[nH]c23)cc1 | inconclusive: 29.1 µM [activator, single point] |  |
| O=C(NCCC1CCCCN1S(=O)(=O)c1ccccc1)C(=O)Nc1ccc(F)cc1 (configuration not stated) | inconclusive: 22.4 µM [activator, single point] |  |
| CCOC(=O)C1=CN(Cc2cccc(F)c2)S(=O)(=O)N(CC)C1c1ccccc1 (configuration not stated) | inconclusive: 20.6 µM [activator, partial curve, poor fit] |  |
| CCCCN(CCCC)CC(O)CN(c1cc([N+](=O)[O-])ccc1OC)S(=O)(=O)c1ccccc1 (configuration not stated) | inconclusive: 2.91 µM [activator, full curve, poor fit] |  |

Part of the list above, as tab-separated lines:
Compound	Potency	re-replication activation
Clc1ccc(-n2cc(-c3ccc(Br)cc3)[n+]3c2CCCCC3)cc1	inconclusive: 6.51 µM [activator, single point]	
COc1ccc(S(=O)(=O)N2CCC(C(=O)N[C@@H](C)C(=O)NCc3cccc(OC)c3)CC2)cc1	inconclusive: 16.4 µM [activator, single point]	
CCOc1cc(C(=S)N2CCOCC2)ccc1OS(=O)(=O)c1ccccc1[N+](=O)[O-]	inconclusive: 20.6 µM [activator, single point]	
COc1ccccc1-n1cnc2cc(NCc3ccccc3O)ccc21	inconclusive: 23.1 µM [activator, single point]	
